Measured values published in patent US20110268748A1.
Results are given in words; binding and its absence hold for the method and conditions named. For part of these data: Binding seen in cells or lysates may run through a third protein. Some results given as binding are weak or reduced against the parent protein; the word gives no strength. For part of these data: Sequences can lack the tags named with a protein.

The chains behind the UniProt entries cited, without tags or fusion partners.
UniProt Q06219: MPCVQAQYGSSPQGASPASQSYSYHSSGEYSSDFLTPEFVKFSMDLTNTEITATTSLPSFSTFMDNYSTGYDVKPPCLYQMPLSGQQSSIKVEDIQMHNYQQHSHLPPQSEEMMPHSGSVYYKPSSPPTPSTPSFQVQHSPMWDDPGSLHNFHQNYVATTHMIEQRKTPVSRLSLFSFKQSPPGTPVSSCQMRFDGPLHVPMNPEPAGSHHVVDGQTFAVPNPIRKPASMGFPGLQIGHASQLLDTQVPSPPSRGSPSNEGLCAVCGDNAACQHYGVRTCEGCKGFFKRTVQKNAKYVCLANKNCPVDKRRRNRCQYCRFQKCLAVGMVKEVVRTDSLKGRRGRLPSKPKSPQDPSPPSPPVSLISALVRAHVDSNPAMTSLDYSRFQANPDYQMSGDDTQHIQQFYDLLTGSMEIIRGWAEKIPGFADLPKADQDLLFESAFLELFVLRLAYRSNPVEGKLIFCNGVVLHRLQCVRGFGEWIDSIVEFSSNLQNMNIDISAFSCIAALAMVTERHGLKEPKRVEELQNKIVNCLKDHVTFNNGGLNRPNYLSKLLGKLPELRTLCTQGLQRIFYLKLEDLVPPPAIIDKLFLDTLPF

Experiments:
[1] = molecular target: Flag-Nurr1 (Flag-tagged full-length Nurr1) (UniProt Q06219); assay: coimmunoprecipitation from MN9D nuclear extract with anti-V5, Western blot with anti-Flag
[2] = molecular target: Gal4NLBD (Gal4 DNA-binding domain fused to the full-length Nurr1 ligand binding domain) (UniProt P04386); assay: mammalian two-hybrid, luciferase reporter, MN9D cells
[3] = molecular target: endogenous Nurr1 protein (mouse substantia nigra lysate) (mouse) (UniProt Q06219); assay: coimmunoprecipitation from mouse SN lysate with anti-Nurr1, Western blot with anti-NuIP

B1: NuIP-V5 (protein, not shown: small tags and cut ends)
chain: MASVPAEAETRQRLLRTVKKEVKQIMEEAVTRKFVHEDSSHIISFCAAVEACVLHGLRRRAAGFLRSNKIAALFMKVGKGFPPAEELSRKVQELEQLIESARNQIQGLQENVRKLPKLPNLSPLAIKHLWIRTALFERVLDKIVHYLVENSSKYYEKEALLMDPVDGPILASLLVGPCALEYTKMKTADHFWTDPSADELVQRHRIHSSHLRQDSPTKRPALCIQKRHSSGSMDDRPSISARDYVESLHQNSRATLLYGKNNVLVQPRDDMEAVPGYLSLHQTADVMTLKWTPNQLMNGSVGDLDYEKSVYWDYAVTIRLEEIVYLHCHQQVDSGGTVVLVSQDGIQRPPFRFPKGGHLLQFLSCLENGLLPHGQLDPPLWSQRGKGKVFPKLRKRSPQGSSESTSSDKEDDEATDYVFRIIYPGTQSEFVPQDLMDVSMNNLPPLWQPSPRKSSCSSCSQSGSADGGSTNGCNHERAPLKLLCDNMKYQILSRAFYGWLAYCRHLSTVRTHLSALVNHMIVSPDLPCDAGQGLTASIWEKYIQDSTTYPEQELLRLIYYGGVQPEIRRAVWPFLLGHYQFGMTEMERKEVDEQIHACYAQTMSEWLGCEAIVRQRERESHAAALAKCSSGASLDSHLHRMLHRDSTISNESSQSCSSGRQNLRLQSDSSSSTQVFESVDEVEQTEAEGRSEEKHPKIPNGNPANGTCSPDSGHPSSHNFSSGLSEHSEPSLSTEDSVLDAQRSLPAVFRPGDSSVEDGQSSEATTSRDEAPREELAVQDSLESDLLANESLEEFMSIPGSLDVALPEKDGAVMDGWPGEADKPSRADSEDNLSEEPEMESLFPALASLAVTSSANNEASPVSSSGVTYSPELLDLYTVNLHRIEKDVQRCDRSYWYFTAANLEKLRNIMCSYIWQHIEIGYVQGMCDLLAPLLVILDDEALAFSCFTELMKRMNQNFPHGGAMDTHFANMRSLIQILDSELFELMHQNGDYTHFYFCYRWFLLDFKRELVYDDVFSVWETIWAAKHVSSAHYVLFIALALVEVYRDIILENNMDFTDIIKFFNEMAERHNAKQILQLARDLVHKVQILIENK
binding [1]: binds

B2: VP16-NuIP (HSV VP16 activation domain fused to full-length NuIP) (protein)
chain: B1 chain
binding [2]: binds

B3: endogenous NuIP protein (mouse substantia nigra lysate) (protein)
chain: B1 chain
binding [3]: binds
